Earlier results as cited in patent US20030138375A1, “Individualization of therapy with Alzheimer's disease agents” (priority 2001, published 2003).
Where a name gives a salt, the structure may show the parent alone.

Key:
[1] = in vivo; cited from earlier work
human plasma proteins = details: concentration range 2-1000 ng/ml; cited from earlier work

In the case of COc1cc2c(cc1OC)C(=O)C(CC1CCN(Cc3ccccc3)CC1)C2 (racemic) [Donepezil, (±)-2,3-dihydro-5,6-dimethoxy-2-[[1-(phenylmethyl)-4-piperidinyl]methyl] -1H-inden-1-onehydrochloride], the “mean apparent plasma clearance (Cl/F)” value [1] is listed as 0.13 L/h/kg, the “steady state volume of distribution” value [1] is listed as 12 L/kg and the “bound to alpha1-125acid glycoprotein” value (human plasma proteins) is listed as “about 21%”.
